Experimental data reported in the supplement of paper PMC12889115.
Some of the results follow. These are raw signals, not scaled to a control.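 Primary screen: polymyxin B was added at a level permeabilizing Salmonella outer membranes while sparing inner membranes. DMSO wells, both with and without polymyxin B, established maximum growth. Plate-to-plate variation meant each plate was ranked on its own, and the lowest-OD600 compounds were selected as hits.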

System: Salmonella enterica serovar Typhimurium SL1344
Experiment: bacterial growth OD600 after 18 h with compound and polymyxin B; higher = more bacterial growth (less inhibition)
Conditions: 50 µM, Mueller-Hinton broth

| Compound | bacterial growth OD600 (polymyxin B 0.75 µg/mL) | bacterial growth OD600 (polymyxin B 1 µg/mL) |
| --- | --- | --- |
| CN(Cc1cnn(C)c1)C(=O)c1cc(COc2cccc(C(F)(F)F)c2)[nH]n1 | 0.773 | – |
| CCCN1CCCC1C(=O)Nc1cccc(-n2cccn2)c1 (configuration not stated) | – | 0.932 |
| CN(CCc1cn[nH]c1)c1nc2nonc2nc1N1CCCC1 | – | 1.04 |
| CCC(COC)NC(=O)c1cc(COc2cccc(OC)c2)on1 (configuration not stated) | – | 1.15 |
| COc1cccc(OCc2nc(C(=O)N3CC[C@@H]4CCCC[C@H]4C3)co2)c1 | – | 0.487 |
| CN(C)CCN(CC1CCCN(Cc2ccccc2F)C1)C(=O)C1(C(N)=O)CC1 (configuration not stated) | 0.835 | – |
| CCO[C@H]1[C@H](NC(=O)c2cccnc2)c2ccccc2C12CCN(C(=O)c1cc(C(C)C)on1)CC2 | 0.811 | – |
| O=C(NCc1cccnc1)c1coc(COc2cccc(C(F)(F)F)c2)n1 | – | 0.852 |
| O=C(CCc1nnc(-c2ccc3c(c2)OCO3)o1)NCCCc1ccccc1 | – | 0.98 |
| CN(Cc1cnccn1)C(=O)CC1C(=O)NCCN1CCCc1ccccc1 (configuration not stated) | – | 0.944 |
| COc1ccc(CN2CCNC(=O)C2CC(=O)N2CCN(c3ccccc3)CC2)c(C)c1C (configuration not stated) | – | 0.805 |
| COc1c(C)cc(C(=O)C2CCCN(Cc3c(C)nc4sccn34)C2)cc1C (configuration not stated) | – | 0.692 |
| Cc1nc[nH]c1CN1CCCC(CCc2c(F)cccc2F)C1 (configuration not stated) | 0.867 | – |
| CCN(Cc1nccn1C)C(=O)c1ccc(N(C)CC2CCCCN2C)nc1 (configuration not stated) | 0.849 | – |
| COc1cccc(-c2cn3c(C(=O)N4CCN(C)C(C)C4)csc3n2)c1 (configuration not stated) | 0.785 | – |
| CCOC(=O)CN(C)C1CCN(c2ccc(CC(=O)NCCc3cccc(F)c3)cc2)CC1 | 0.867 | – |

A draw from above in order of formula weight, smallest number first.

| Compound | bacterial growth OD600 (polymyxin B 0.75 µg/mL) | bacterial growth OD600 (polymyxin B 1 µg/mL) |
| --- | --- | --- |
| CCC(COC)NC(=O)c1cc(COc2cccc(OC)c2)on1 (configuration not stated) | – | 1.15 |
| O=C(NCc1cccnc1)c1coc(COc2cccc(C(F)(F)F)c2)n1 | – | 0.852 |
| CN(Cc1cnccn1)C(=O)CC1C(=O)NCCN1CCCc1ccccc1 (configuration not stated) | – | 0.944 |

Additional results.

| Compound | bacterial growth OD600 (polymyxin B 0.75 µg/mL) | bacterial growth OD600 (polymyxin B 1 µg/mL) |
| --- | --- | --- |
| O=C(CCC(F)(F)F)N1CCC(CCC(=O)N2CCC(Cc3ccccc3)CC2)CC1 | – | 0.824 |
| O=C(c1ccc(N2CCCC(O)C2)nc1)N1CCC(Cn2cccn2)CC1 (configuration not stated) | 0.798 | – |
| CN(CCc1ccccc1)C1CCN(c2ccc(C(=O)NCCN3CCOCC3)cc2)CC1 | 0.875 | – |
| O=C(CCCn1cncn1)N1CCOC(Cc2ccccc2Cl)C1 (configuration not stated) | 0.985 | – |
| CN(CCOc1ccccc1)C(=O)c1cn(Cc2ccccc2F)nn1 | – | 0.827 |
| CCOC(=O)C1(CCc2ccccc2)CCCN(C(=O)c2n[nH]c(=O)c3ccccc23)C1 (configuration not stated) | – | 0.757 |
| COc1ccc(-n2ncc(C(C)NCc3ccc(F)cc3Cl)c2C)cc1 (configuration not stated) | 0.772 | – |
| Cc1cc(C(=O)N2CCC(N3CCC(C(=O)NCCc4ccccc4)CC3)CC2)n(C)n1 | – | 0.735 |
| CCc1ccc(CN2CCCC2C(=O)Nc2ccccc2Oc2cccnc2)o1 (configuration not stated) | 0.433 | – |
| Cn1ccnc1CNC(=O)CC(c1cccc(O)c1)c1cccc(Cl)c1 (configuration not stated) | – | 0.787 |
| O=C(NCc1cccc(OC(F)(F)F)c1)C1CCC(=O)N(Cc2cccc(F)c2)C1 (configuration not stated) | – | 0.793 |
| Cn1c(C2CCCO2)nc2cc(NC(=O)CC3CCCC3)cc(C(=O)NCCCn3ccnc3)c21 (configuration not stated) | 0.991 | – |
| COc1ccc(C(=O)Nc2ccnn2C2CCN(C(=O)C3=CCCC3)CC2)cc1 | – | 0.936 |
| COc1ccccc1CCC(=O)Nc1cnn(CC(=O)NC(C)c2nc(-c3ccccc3)no2)c1 (configuration not stated) | 0.012 | – |
| Cc1ccccc1Oc1ncccc1CNC(=O)CCN1CCOCC1 | – | 0.934 |
| O[C@@H]1CN(Cc2nccs2)CC[C@H]1N1CCN(CCc2ccccc2)CC1 | – | 1.26 |
